This is an account of results in PMC10526209, “Systematic Exploration of Functional Group Relevance for Anti-Leishmanial Activity of Anisomycin” (Biomedicines, 2023).

The series relates to L. tarentolae lysate. Put plainly: Cell-free transcription-translation inhibition in L. tarentolae lysate. In kind it is biochemical. The conditions noted are these: for SI (selectivity index) = IC50 L. tarentolae/IC50 RR: ratio of translation IC50 values; for fold less active than anisomycin against Leishmania: translation inhibition, relative to anisomycin. How it is done: Cytosolic ribosome susceptibility and selectivity were assessed through three different cell-free transcription-translation assays: (1) An extract of E. coli (S30, Promega, Madison, WI, USA), (2) in rabbit reticulocytes (Promega), and (3) in L. tarentolae lysate (Jena Bioscience, Jena, Germany). Three plasmids, compatible with each extract system, were used in this study: pBESTlucTM (Promega) for the prokaryotic translation assay, Luciferase T7 DNA (Promega) for the reticulocytes, and pLEXSY-invitro2-EGFP (Jena Bioscience) for Leishmania. Firefly luciferase was used as a reporter gene for the bacterial and reticulocyte systems, and EGFP for Leishmania. […] Assays were performed in white polystyrene 96-well flat-bottom plates (Nunc, Roskilde, Denmark) for luciferase and black polystyrene 384-well flat-bottom plates (Greiner, Kremsmunster, Austria) for EGFP. Incubation times were 60 min at 37 °C, 90 min at 30 °C, and 120 min at 26 °C for the bacterial, reticulocyte, and Leishmania systems, respectively. Reactions were stopped by quick snap cooling followed by a 5 min incubation on ice. Luciferase activity was measured for each well following the addition of 50 μL of Luciferase Assay reagent (Promega, Madison, WI, USA) with an automatic reagent injector (Tecan, Mannedorf, Switzerland) by recording the chemical-luminescence signal. EGFP fluorescence (λex = 488 nm; λem = 507 nm) was recorded on a Tecan Infinite R®F200 microplate reader (Tecan). Extracts lacking the circular DNA template were used as a negative control to calculate the fluorescence/chemical luminescence background. Reaction mixtures without compounds were used as positive controls and were regarded as 100% translation. Paromomycin was used as a control reagent in all assays. At least six different concentrations were used to plot each translation inhibition curve; experiments were performed in three independent repeats in duplicate. Half maximal inhibition concentrations (IC50) values were calculated from the concentration-response fitting curves using GraFit7.0.3 software.

With `CCCCCCCCOc1ccc(C[C@H]2NC[C@H](O)[C@H]2OC(C)=O)cc1` [Analog 22b, (2R,3S,4S)-4-hydroxy-2-(4-octyloxybenzyl)-pyrrolidin-3-yl acetate], the “SI (selectivity index) = IC50 L. tarentolae/IC50 RR” value is recorded as 3.5. Turning to `CC(=O)O[C@@H]1[C@@H](O)CN[C@@H]1Cc1ccc(OC(C)C)cc1` [Analog 22a, (2R,3S,4S)-4-hydroxy-2-(4-iso-propoxybenzyl)-pyrrolidin-3-yl acetate], the “SI (selectivity index) = IC50 L. tarentolae/IC50 RR” value was found to be 1.2 and the “fold less active than anisomycin against Leishmania” value stood at 2 fold. For the molecule `CC(=O)O[C@@H]1[C@@H](O)CN[C@@H]1Cc1ccc(OCc2ccccc2)cc1` [Analog 22c, (2R,3S,4S)-4-hydroxy-2-(4-benzyloxybenzyl)-pyrrolidin-3-yl acetate], the “SI (selectivity index) = IC50 L. tarentolae/IC50 RR” value worked out at 8.8 and the “fold less active than anisomycin against Leishmania” value stood at 14 fold.

On to `CC(=O)O[C@@H]1[C@@H](O)CN[C@@H]1Cc1ccc(O)cc1` [Analog 17, (2R,3S,4S)-4-hydroxy-2-(4-hydroxybenzyl)-pyrrolidin-3-yl acetate], for which the “SI (selectivity index) = IC50 L. tarentolae/IC50 RR” value was determined as 8.6. For `NC[C@@H]1O[C@H](O[C@H]2[C@@H](O)[C@H](O[C@@H]3[C@@H](O)[C@H](N)C[C@H](N)[C@H]3O[C@H]3O[C@H](CO)[C@@H](O)[C@H](O)[C@H]3N)O[C@@H]2CO)[C@H](N)[C@@H](O)[C@@H]1O` [Paromomycin, reference compound], the “SI (selectivity index) = IC50 L. tarentolae/IC50 RR” value came to 0.2.

`COc1ccc(C[C@H]2NC[C@H](O)[C@H]2OC)cc1.Cl` [Analog 11, (2R,3S,4S)-3-methoxy-4-hydroxy-2-(4-methoxybenzyl)-pyrrolidine hydrochloride]: the “SI (selectivity index) = IC50 L. tarentolae/IC50 RR” value is recorded as 0.3.
